Reference: patent US9744148B2, “Kallikrein 7 inhibitors” (SIXERA PHARMA AB, priority 2014, dated 2017)
The match of structure and compound is tentative.

By UniProt entry, the sequences of proteins in these tests, tags left out. Residues count along the entry.
UniProt P49862, 30-253 limits assumed: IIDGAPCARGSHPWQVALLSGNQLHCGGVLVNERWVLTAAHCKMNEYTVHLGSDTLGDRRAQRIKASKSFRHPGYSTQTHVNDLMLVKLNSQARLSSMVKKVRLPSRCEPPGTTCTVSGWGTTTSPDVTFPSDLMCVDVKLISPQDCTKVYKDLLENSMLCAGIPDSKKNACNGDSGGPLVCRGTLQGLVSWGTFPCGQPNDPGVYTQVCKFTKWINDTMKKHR

Target: Active human KLK7 (SCCE) (Homo sapiens (Human), UniProt P49862)
Assay: KLK7 Inhibitor Test
Assay type: biochemical
Details: substrate MeO-Suc-Arg-Pro-Tyr-pNA, pH 7.2, 37° C., absorbance at 405 nm
Procedure: KLK7 Inhibitor Test Substrate:(MeO-Suc-[…]), acetate salt, Peptide international, lot #906841, previously named S-2586 Enzyme: […] Buffer: 10 mM NaPhospate, 0.5 M NaCl, pH 7.2 […] 10 μl of substance in DMSO was added to wells giving final concentrations of 20 μ[…], and 0.15625 μM. 40 μl of active KLK7 (SCCE) (diluted to 12.5 μg/ml in activity buffer) was added all wells except blank to which activity buffer was added. […] The mean value V of each sample was calculated (n=2 for the substances and n=4 for the control). From the values of V the % of total activity was calculated as (Vinhibitor/Vcontrol (no inhibitor))×100. Plotting and calculation was then done in originPro. % of total activity (y) was plotted vs. log [inhibitor] (log x) and a function of dose response y=A1+(A2-A1)/(1+10^((LOG(x0)-x)*p)) where A1=Bottom platue, A2=Top platue, x0=EC50 and p=Hill slope was fitted to the curve. […] The IC50 values were used to identify KLK7 inhibitors according to the invention.

IC50: 150 nM
SMILES: COc1ccc(NC(=O)C(C)OC(=O)CCC2CCCC2)cc1 (stereo not shown)
